# Measured values: patent publication US20180320217A1, “METHODS FOR SAMPLING AND MEASURING ORAL LAVAGE PROTEINS” (The Procter & Gamble Company, priority 2017, published 2018)
# Test system: proteins in oral lavage
# Experiment: Abundance of proteins in human oral lavage (SomaLogic), TABLE 1
# Assay type: in vivo
# Details: for Means (Original Scale) High bleeder BL: high bleeders (gingivitis); for Means (Original Scale) High bleeder BL / Means (Original Scale) Low bleeder BL: baseline; for Means (Original Scale) Low bleeder BL: low bleeders (healthy); for Fold Change High bleeder BL vs Low bleeder BL: high bleeders vs low bleeders at baseline
# [1] = abundance in oral lavage, high bleeders, week 4 of investigative products
# [2] = oral lavage, week 4 of investigative products vs baseline, high bleeders
Molecule,Means (Original Scale) High bleeder BL (abundance in oral lavage),Means (Original Scale) Low bleeder BL (abundance in oral lavage),"Fold Change High bleeder W4 vs High bleeder BL (in vivo, po)","Means (Original Scale) High bleeder W4 (in vivo, po)",Fold Change High bleeder BL vs Low bleeder BL (oral lavage),Means (Original Scale) High bleeder W4 [1],Fold Change High bleeder W4 vs High bleeder BL [2]
"Histone-lysine N-methyltransferase EHMT2 (protein, UniProt Q96KQ7 2-1210, looked up) Histone-lysine …: AAAAGAAAAAAAEGEAPAEMGALLLEKETRGATERVHGSLGDTPRSEETLPKATPDSLEPAGPSSPASVTVTVGDEGADTPVGATPLIGDESENLEGDGDLRGGRILLGHATKSFPSSPSKGGSCPSRAKMSMTGAGKSPPSVQSLAMRLLSMPGAQGAAAAGSEPPPATTSPEGQPKVHRARKTMSKPGNGQPPVPEKRPPEIQHFRMSDDVHSLGKVTSDLAKRRKLNSGGGLSEELGSARRSGEVTLTKGDPGSLEEWETVVGDDFSLYYDSYSVDERVDSDSKSEVEALTEQLSEEEEEEEEEEEEEEEEEEEEEEEEDEESGNQSDRSGSSGRRKAKKKWRKDSPWVKPSRKRRKREPPRAKEPRGVNGVGSSGPSEYMEVPLGSLELPSEGTLSPNHAGVSNDTSSLETERGFEELPLCSCRMEAPKIDRISERAGHKCMATESVDGELSGCNAAILKRETMRPSSRVALMVLCETHRARMVKHHCCPGCGYFCTAGTFLECHPDFRVAHRFHKACVSQLNGMVFCPHCGEDASEAQEVTIPRGDGVTPPAGTAAPAPPPLSQDVPGRADTSQPSARMRGHGEPRRPPCDPLADTIDSSGPSLTLPNGGCLSAVGLPLGPGREALEKALVIQESERRKKLRFHPRQLYLSVKQGELQKVILMLLDNLDPNFQSDQQSKRTPLHAAAQKGSVEICHVLLQAGANINAVDKQQRTPLMEAVVNNHLEVARYMVQRGGCVYSKEEDGSTCLHHAAKIGNLEMVSLLLSTGQVDVNAQDSGGWTPIIWAAEHKHIEVIRMLLTRGADVTLTDNEENICLHWASFTGSAAIAEVLLNARCDLHAVNYHGDTPLHIAARESYHDCVLLFLSRGANPELRNKEGDTAWDLTPERSDVWFALQLNRKLRLGVGNRAIRTEKIICRDVARGYENVPIPCVNGVDGEPCPEDYKYISENCETSTMNIDRNITHLQHCTCVDDCSSSNCLCGQLSIRCWYDKDGRLLQEFNKIEPPLIFECNQACSCWRNCKNRVVQSGIKVRLQLYRTAKMGWGVRALQTIPQGTFICEYVGELISDAEADVREDDSYLFDLDNKDGEVYCIDARYYGNISRFINHLCDPNIIPVRVFMLHQDLRFPRIAFFSSRDIRTGEELGFDYGDRFWDIKSKYFTCQCGSEKCKHSAEAIALEQSRLARLDPHPELLPELGSLPPVNT",224,79,0.72,154,2.52,–,–
"72 kDa type IV collagenase (protein, UniProt P08253 110-660, looked up) 72 kDa type IV collagenase: YNFFPRKPKWDKNQITYRIIGYTPDLDPETVDDAFARAFQVWSDVTPLRFSRIHDGEADIMINFGRWEHGDGYPFDGKDGLLAHAFAPGTGVGGDSHFDDDELWTLGEGQVVRVKYGNADGEYCKFPFLFNGKEYNSCTDTGRSDGFLWCSTTYNFEKDGKYGFCPHEALFTMGGNAEGQPCKFPFRFQGTSYDSCTTEGRTDGYRWCGTTEDYDRDKKYGFCPETAMSTVGGNSEGAPCVFPFTFLGNKYESCTSAGRSDGKMWCATTANYDDDRKWGFCPDQGYSLFLVAAHEFGHAMGLEHSQDPGALMAPIYTYTKNFRLSQDDIKGIQELYGASPDIDLGTGPTPTLGPVTPEICKQDIVFDGIAQIRGEIFFFKDRFIWRTVTPRDKPMGPLLVATFWPELPEKIDAVYEAPQEEKAVFFAGNEYWIYSASTLERGYPKPLTSLGLPPDVQRVDAAFNWSKNKKTYIFAGDKFWRYNEVKKKMDPGFPKLIADAWNAIPDNLDAVVDLQGGGHSYFFKGAYYLKLENQSLKSVKFGSIKSDWLGC",4284,1249,–,–,3.20,2573,0.61
"Insulin-like growth factor-binding protein 6 (protein, UniProt P24592 28-240, looked up) Insulin-like growth …: RCPGCGQGVQAGCPGGCVEEEDGGSPAEGCAEAEGCLRREGQECGVYTPNCAPGLQCHPPKDDEAPLRALLLGRGRCLPARAPAVAEENPKESKPQAGTARPQDVNRRDQQRNPGTSTTPSQPNSAGVQDTEMGPCRRHLDSVLQQLQTEVYRGAQTLYVPNCDHRGFYRKRQCRSSQGQRRGPCWCVDRMGKSLPGSPDGNGSSSCPTGSSG",2178,761,–,–,2.37,1237,0.63
"Intercellular adhesion molecule 2 (protein, UniProt P13598 25-275, looked up) Intercellular adhesion …: KVFEVHVRPKKLAVEPKGSLEVNCSTTCNQPEVGGLETSLDKILLDEQAQWKHYLVSNISHDTVLQCHFTCSGKQESMNSNVSVYQPPRQVILTLQPTLVAVGKSFTIECRVPTVEPLDSLTLFLFRGNETLHYETFGKAAPAPQEATATFNSTADREDGHRNFSCLAVLDLMSRGGNIFHKHSAPKMLEIYEPVSDSQMVIIVTVVSVLLSLFVTSVLLCFIFGQHLRQQRMGTYGVRAAWRRLPQAFRP",4810,507,–,–,6.58,1913,0.55
"Inhibitor of growth protein 1 (protein, UniProt Q9UK53 1-422, looked up) Inhibitor of growth protein 1: MSFVECPYHSPAERLVAEADEGGPSAITGMGLCFRCLLFSFSGRSGVEGGRVDLNVFGSLGLQPWIGSSRCWGGPCSSALRCGWFSSWPPPSKSAIPIGGGSRGAGRVSRWPPPHWLEAWRVSPLPLSPLSPATFGRGFIAVAVIPGLWARGRGCSSDRLPRPAGPARRQFQAASLLTRGWGRAWPWKQILKELDECYERFSRETDGAQKRRMLHCVQRALIRSQELGDEKIQIVSQMVELVENRTRQVDSHVELFEAQQELGDTAGNSGKAGADRPKGEAAAQADKPNSKRSRRQRNNENRENASSNHDHDDGASGTPKEKKAKTSKKKKRSKAKAEREASPADLPIDPNEPTYCLCNQVSYGEMIGCDNDECPIEWFHFSCVGLNHKPKGKWYCPKCRGENEKTMDKALEKSKKERAYNR",1046,369,–,–,2.67,592,0.58
"ICOS ligand (protein, UniProt O75144 19-302, looked up) ICOS ligand: DTQEKEVRAMVGSDVELSCACPEGSRFDLNDVYVYWQTSESKTVVTYHIPQNSSLENVDSRYRNRALMSPAGMLRGDFSLRLFNVTPQDEQKFHCLVLSQSLGFQEVLSVEVTLHVAANFSVPVVSAPHSPSQDELTFTCTSINGYPRPNVYWINKTDNSLLDQALQNDTVFLNMRGLYDVVSVLRIARTPSVNIGCCIENVLLQQNLTVGSQTGNDIGERDKITENPVSTGEKNAATWSILAVLCLLVVVAVAIGWVCRDRCLQHSYAGAWAVSPETELTGHV",80395,13720,–,–,5.66,51085,0.73
"Inorganic pyrophosphatase (protein, UniProt Q15181 2-289, looked up) Inorganic pyrophosphatase: SGFSTEERAAPFSLEYRVFLKNEKGQYISPFHDIPIYADKDVFHMVVEVPRWSNAKMEIATKDPLNPIKQDVKKGKLRYVANLFPYKGYIWNYGAIPQTWEDPGHNDKHTGCCGDNDPIDVCEIGSKVCARGEIIGVKVLGILAMIDEGETDWKVIAINVDDPDAANYNDINDVKRLKPGYLEATVDWFRRYKVPDGKPENEFAFNAEFKDKDFAIDIIKSTHDHWKALVTKKTNGKGISCMNTTLSESPFKCDPDAARAIVDALPPPCESACTVPTDVDKWFHHQKN",4082,1342,–,–,3.73,1645,0.49
"Iduronate 2-sulfatase (protein, UniProt P22304 34-455; P22304 456-550, looked up) Iduronate 2-sulfatase 42 kDa …: TDALNVLLIIVDDLRPSLGCYGDKLVRSPNIDQLASHSLLFQNAFAQQAVCAPSRVSFLTGRRPDTTRLYDFNSYWRVHAGNFSTIPQYFKENGYVTMSVGKVFHPGISSNHTDDSPYSWSFPPYHPSSEKYENTKTCRGPDGELHANLLCPVDVLDVPEGTLPDKQSTEQAIQLLEKMKTSASPFFLAVGYHKPHIPFRYPKEFQKLYPLENITLAPDPEVPDGLPPVAYNPWMDIRQREDVQALNISVPYGPIPVDFQRKIRQSYFASVSYLDTQVGRLLSALDDLQLANSTIIAFTSDHGWALGEHGEWAKYSNFDVATHVPLIFYVPGRTASLPEAGEKLFPYLDPFDSASQLMEPGRQSMDLVELVSLFPTLAGLAGLQVPPRCPVPSFHVELCREGKNLLKHFRFRDLEEDPYLPG Iduronate 2-sulfatase 14 kDa …: NPRELIAYSQYPRPSDIPQWNSDKPSLKDIKIMGYSIRTIDYRYTVWVGFNPDEFLANFSDIHAGELYFVDSDPLQDHNMYNDSQGGDLFQLLMP",1631,738,–,–,2.21,1106,0.70
"Interferon regulatory factor 1 (protein, UniProt P10914 1-325, looked up) Interferon regulatory factor 1: MPITRMRMRPWLEMQINSNQIPGLIWINKEEMIFQIPWKHAAKHGWDINKDACLFRSWAIHTGRYKAGEKEPDPKTWKANFRCAMNSLPDIEEVKDQSRNKGSSAVRVYRMLPPLTKNQRKERKSKSSRDAKSKAKRKSCGDSSPDTFSDGLSSSTLPDDHSSYTVPGYMQDLEVEQALTPALSPCAVSSTLPDWHIPVEVVPDSTSDLYNFQVSPMPSTSEATTDEDEEGKLPEDIMKLLEQSEWQPTNVDGKGYLLNEPGVQPTSVYGDFSCKEEPEIDSPGGDIGLSLQRVFTDLKNMDATWLDSLLTPVRLPSIQAIPCAP",2361,165,–,–,7.66,954,0.64
